PubChem BioAssay AID1259425 – University of Nebraska Medical Center | 2018
Assay: 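Find knockdowns that reproduce the gene expression pattern seen when KSR1 is lost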 (primary screen). Cells: HCT116 human colon cancer cells. Reagents: siRNA pool against human genes, 50 nM siRNA. Measurement: 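mRNA of six signature genes measured together by branched-DNA assay after 50 nM siRNA pool, blank removed, divided by geometric mean of two housekeeping genes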. Direction: BNIP3L mRNA: higher = more BNIP3L transcript after knockdown; NDRG1 mRNA: higher = more NDRG1 transcript after knockdown; BNIP3 mRNA: higher = more BNIP3 transcript after knockdown; ALDOC mRNA: higher = more ALDOC transcript after knockdown; ACSL5 mRNA: higher = more ACSL5 transcript after knockdown.
The whole screen tested about 14,000 reagents; shown is a part drawn at random. Reagent sequences are not shown. Not stated in the record: the time to read-out.

| gene | BNIP3L mRNA, set 1 | NDRG1 mRNA, set 1 | BNIP3 mRNA, set 1 | ALDOC mRNA, set 1 | ACSL5 mRNA, set 1 |
| --- | --- | --- | --- | --- | --- |
| RFX7 | 0.163 | 0.33 | 0.389 | 0.0138 | 0.125 |
| CYP2C18 | 0.107 | 0.287 | 0.32 | 0.029 | 0.256 |
| SIX2 | 0.0849 | 0.248 | 0.339 | 0.0291 | 0.265 |
| PTX3 | 0.148 | 0.233 | 0.333 | 0.0151 | 0.184 |
| XG | 0.0501 | 0.0636 | 0.244 | 0.00875 | 0.0864 |
| SBF2 | 0.117 | 0.143 | 0.285 | 0.0222 | 0.242 |
| CCDC28A | 0.0932 | 0.126 | 0.443 | 0.038 | 0.0717 |
| HYI | 0.167 | 0.381 | 0.349 | 0.0217 | 0.291 |
| DGKH | 0.0582 | 0.0823 | 0.212 | 0.0195 | 0.074 |
| SSX5 | 0.129 | 0.413 | 0.303 | 0.0309 | 0.242 |
| POP7 | 0.148 | 0.27 | 0.417 | 0.106 | 0.143 |
| EXOG | 0.118 | 0.134 | 0.319 | 0.0213 | 0.315 |
| MOV10L1 | 0.172 | 0.279 | 0.292 | 0.0135 | 0.282 |
| SLC25A37 | 0.0568 | 0.342 | 0.269 | 0.0104 | 0.269 |
| RIC8B | 0.122 | 0.154 | 0.337 | 0.0146 | 0.261 |
| PGM2 | 0.165 | 0.122 | 0.379 | 0.0382 | 0.338 |
| ARFGEF3 | 0.157 | 0.151 | 0.3 | 0.0261 | 0.308 |
| HOXD12 | 0.0699 | 0.0797 | 0.222 | 0.00613 | 0.101 |
| HIBCH | 0.0608 | 0.0801 | 0.328 | 0.0139 | 0.0933 |

Next part; the last 6 above are carried over.
| gene | BNIP3L mRNA, set 1 | NDRG1 mRNA, set 1 | BNIP3 mRNA, set 1 | ALDOC mRNA, set 1 | ACSL5 mRNA, set 1 |
| --- | --- | --- | --- | --- | --- |
| SLC25A37 | 0.0568 | 0.342 | 0.269 | 0.0104 | 0.269 |
| RIC8B | 0.122 | 0.154 | 0.337 | 0.0146 | 0.261 |
| PGM2 | 0.165 | 0.122 | 0.379 | 0.0382 | 0.338 |
| ARFGEF3 | 0.157 | 0.151 | 0.3 | 0.0261 | 0.308 |
| HOXD12 | 0.0699 | 0.0797 | 0.222 | 0.00613 | 0.101 |
| HIBCH | 0.0608 | 0.0801 | 0.328 | 0.0139 | 0.0933 |
| QPCT | 0.108 | 0.306 | 0.468 | 0.0181 | 0.108 |
| PMS2P3 | 0.135 | 0.242 | 0.224 | 0.0592 | 0.0847 |
| PRAF2 | 0.0933 | 0.014 | 0.228 | 0.00328 | 0.0311 |
| THBD | 0.105 | 0.192 | 0.151 | 0.0247 | 0.224 |
| CRX | 0.0735 | 0.62 | 0.154 | 0.00141 | 0.236 |
| DBNDD1 | 0.128 | 0.285 | 0.437 | 0.0102 | 0.252 |
| CTTNBP2 | 0.124 | 0.153 | 0.406 | 0.0643 | 0.219 |
| KRT5 | 0.0533 | 0.307 | 0.15 | 0.0311 | 0.0782 |
| MRPL58 | 0.0477 | 0.228 | 0.218 | -0.000272 | 0.193 |
| AHR | 0.0579 | 0.181 | 0.23 | 0.0407 | 0.103 |
| OPLAH | 0.0904 | 0.193 | 0.397 | 0.0958 | 0.22 |
| BCAM | 0.0639 | 0.141 | 0.179 | 0.0159 | 0.177 |
| PPP6C | 0.0707 | 0.278 | 0.265 | 0.0169 | 0.165 |
| PCCA | 0.0792 | 0.165 | 0.227 | 0.0306 | 0.112 |
| SEMA7A | 0.23 | 0.173 | 0.284 | 0.0573 | 0.247 |
| MARCHF6 | 0.0965 | 0.298 | 0.323 | 0.0267 | 0.268 |
| GLUD2 | 0.109 | 0.304 | 0.162 | 0.0272 | 0.15 |
| APPL2 | 0.141 | 0.302 | 0.294 | 0.0191 | 0.136 |
| ARPC1B | 0.0568 | 0.0771 | 0.241 | 0.0196 | 0.147 |
| RBMY1A1 | 0.124 | 0.141 | 0.338 | 0.0401 | 0.164 |
| IKBKE | 0.0607 | 0.142 | 0.397 | 0.00594 | 0.206 |
| HOOK3 | 0.139 | 0.0742 | 0.304 | 0.0332 | 0.36 |
| OGDHL | 0.034 | 0.296 | 0.303 | 0.0419 | 0.146 |
| SLC48A1 | 0.0873 | 0.109 | 0.507 | 0.0614 | 0.125 |
| HES1 | 0.127 | 0.215 | 0.4 | 0.0117 | 0.204 |
| TGM2 | 0.0837 | 0.0896 | 0.263 | 0.0117 | 0.164 |
| ATAD2 | 0.187 | 0.206 | 0.271 | 0.0166 | 0.195 |
| IL12RB1 | 0.115 | 0.404 | 0.244 | 0.0163 | 0.145 |
| RIC3 | 0.0937 | 0.322 | 0.355 | 0.0502 | 0.249 |
| ACY1 | 0.0811 | 0.213 | 0.419 | 0.0295 | 0.116 |
| MAGI2 | 0.0887 | 0.131 | 0.305 | 0.0221 | 0.157 |
